Measurements reported in PubChem BioAssay AID504795 (Drosophila RNAi Screening Center, 2011).

Assay: 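Knock-downs causing abnormal branching, bundling, swelling or growth of cultured neurons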 (primary screen)
System: primary Drosophila neurons and glia
Knock-down reagent: long dsRNA against Drosophila genes, 250 ng dsRNA per well
Timing: one week
Measured: 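Descriptive morphology terms assigned by visual inspection of live automated images of GFP-marked cells, taken one week after adding 250 ng dsRNA per well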
Only reagents picked out of a larger screen are listed. 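Every listed dsRNA shows some phenotype; how reagents were selected for listing is not stated.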 The numbers tell different reagents against one gene apart. Names joined by + are all predicted targets of the reagent.

gene	dsRNA no.	phenotype seen, replicate 1	phenotype seen, replicate 2
CG4991	1	more neurite growth	
Coq4 + Gorab + frc	1	cell fragments present	
Smyd3	1	too many neurite branches	
vtd	1	too many neurite branches	
CG1265	1	reduced axon outgrowth	
prg	1	axon bundles split apart	
CG5953	1	abnormal cell clusters	
CG13088	1	axon bundles split apart	
psh	1	weaker green signal	
CLS	1	too many neurite branches	
CAP	1	too many neurite branches	
CG15553	1	reduced axon outgrowth	
CG17826	1	too many neurite branches	abnormal cell clusters
CG4968	1	axon bundles split apart	
Abca3	1	axon bundles split apart	
ps	1	abnormal cell clusters	
CG34354	1	reduced axon outgrowth	
CG34354	2	axon bundles split apart	
CG34354	3	sheet-like cell extensions	
CG10063	1	too many neurite branches	
CG13594	1	axon bundles split apart	
CG42843 (retired record)	1	abnormal cell clusters	
B9d1	1	abnormal cell clusters	
sni	1	sheet-like cell extensions	
CG12213	1	abnormal cell clusters	abnormal cell clusters
Obp47a	1	too many neurite branches	
CG42539 (retired record)	1	axon bundles split apart	
BG642163	1	abnormal cell clusters	
AANATL2	1	too many neurite branches	
CG4364	1	axon bundles split apart	
AANATL6	1	axon bundles split apart	
CG4842	1	too many neurite branches	
Arms	1	abnormal cell clusters	
Arms	2	axon bundles split apart	
CG13744	1	axon bundles split apart	
Alp2	1	reduced axon outgrowth	
Lamp1	1	sheet-like cell extensions	
Nnp-1	1	abnormal cell clusters	
ArfGAP1	1	reduced axon outgrowth	
Strip	1	cell fragments present	
Os-C	1	too many neurite branches	
trv	1	axon bundles split apart	
Crz	1	abnormal cell clusters	
CG13085	1	axon bundles split apart	

Laid out differently: 4 of the entries above
Alp2
- phenotype seen, replicate 1: reduced axon outgrowth

Lamp1
- phenotype seen, replicate 1: sheet-like cell extensions

Nnp-1
- phenotype seen, replicate 1: abnormal cell clusters

ArfGAP1
- phenotype seen, replicate 1: reduced axon outgrowth
